How the values were obtained:
FHC = settings: slow-release morphine pellets, 4 days
[1] = tested on: layer II/III pyramidal neurons of the prefrontal cortex; assay: In vivo dendritic spine analysis (Golgi stain, Neurolucida); set-up: species or system rat; settings: slow-release morphine pellets, 4 days, 3-week-old rats

SMILES: CN1CC[C@]23c4c5ccc(O)c4O[C@H]2[C@@H](O)C=C[C@H]3[C@H]1C5 [morphine]
- levels of FHC in brain lysates (FHC): increase levels of FHC in the brain lysates
- dendritic spine density [1]: significantly decrease dendritic spine densities
